Some of the results follow. These are further read-outs of the screen, such as a control signal, another cell line or another target. No call is given for them. Compounds called inactive in the main read-out are mostly missing here. Words in brackets tell the shape of the fitted curve; partial curves, single points and poor fits give uncertain potencies.
Assay: qHTS Assay for Lipid Storage Modulators in Drosophila S3 Cells;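 on cell number change: cells counted by Cell Tracker Red CMTPX staining in the red channel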
Settings: BODIPY lipid droplet fluorescence, 18-24 h; for cell number change: measured here: cell count max response, cells fed with added oleic acid
How it was run: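 Drosophila S3 cells loaded with oleic acid (400 uM, as added) and compounds at several concentrations; lipid droplets imaged by 488-nm laser-scanning cytometry, 500–530 nm intensity and object ratio to cell channel. Percent activity normalized to 20 uM Triacsin C.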

[1] = measured here: lipid fluorescence (Fed channel) AC50, cells fed with added oleic acid
[2] = measured here: cell number channel AC50, cells fed with added oleic acid

| SMILES | cell number change | AC50 [1] | AC50 [2] |
| --- | --- | --- | --- |
| COc1ccc(Cc2nc(-c3ccccn3)no2)cc1 | -22.1% | 0.259 µM [falling, full curve] | – |
| CC1=C(C(=O)N2CCOCC2)C(c2ccccc2F)NC(=O)N1 (configuration not stated) | 48.4% | 4.11 µM [falling, single point] | 4.11 µM [falling, single point] |
| COc1cc(OC)cc(C(=O)N[C@H](C(=O)Nc2cc(F)ccc2C)C(C)C)c1 | 63.4% | 4.61 µM [rising, full curve] | 20.6 µM [rising, partial curve] |
| O=S1(=O)N=C(N=Nc2c(O)[nH]c3ccccc23)c2ccccc21 | 36.5% | – | – |
| Cc1ccc(S(=O)(=O)NC(=O)COc2ccc(Cl)cc2Cl)cc1 | -13.1% | – | 0.00517 µM [falling, full curve, poor fit] |
| CC1CCCN(CCCN2C(=O)C3C(C(=O)Nc4cccc(Cl)c4)C4C=CC3(O4)C2C(=O)NC2CCCCC2)C1 (configuration not stated) | 3.15% | – | – |
| O=C(Oc1ccc(Br)cc1)C1CC(=O)N(c2ccc(F)cc2)C1 (configuration not stated) | -21.5% | – | – |
| COn1c(SCc2cccc(Cl)c2)nc2ccccc2c1=O | 3.86% | 0.517 µM [rising, partial curve, poor fit] | – |
| Nc1cc(N)cc(C(=O)Nc2ccc3c(c2)C(=O)NC3=O)c1 | 4.5% | – | – |
| CCN(CC)S(=O)(=O)c1ccc2c(c1)nc(SCC(=O)N1CCCCCC1)n2-c1ccc(OC)cc1 | 36% | 6.51 µM [rising, single point] | 2.06 µM [rising, single point] |
| CCOc1ccc(S(=O)(=O)N2Cc3ccccc3CC2C(=O)O)cc1 (configuration not stated) | 2.23% | – | – |
| O=C(CCC1CCCCC1)Nc1ccc(S(=O)(=O)Nc2nccs2)cc1 | 13.9% | 0.0517 µM [rising, full curve, poor fit] | – |
| CCC(C)NC(=O)CSc1nc2ccccc2c(=O)n1CCCC(=O)NCC1CCCO1 (configuration not stated) | 21.7% | 1.64 µM [rising, partial curve] | – |
| O=C(Nc1ccccn1)C1CCN(S(=O)(=O)c2ccc(Cl)cc2)CC1 | -4.48% | 6.51 µM [rising, single point] | – |
| COC(=O)c1ccc(NC(=S)NC2CC(C)(C)NC(C)(C)C2)cc1 | 4.33% | – | – |
| COc1ccc(NC(=O)C2CCCN(C(=O)NC3CCCCC3)C2)cc1OC (configuration not stated) | -24.5% | 0.116 µM [falling, partial curve, poor fit] | – |
| O=c1[nH]c(-c2ccccc2)cs1 | 21.1% | 29.1 µM [rising, single point] | – |
| COC(=O)c1c(N2C(=O)CC(Sc3ccccc3C(=O)O)C2=O)sc2c1CCCC2 (configuration not stated) | 8.59% | 4.61 µM [rising, partial curve] | 6.51 µM [rising, single point] |
| CC(=O)Nc1cccc2c1C(=O)NC2=O | -20.5% | 25.9 µM [falling, partial curve] | – |
| O=C(CCNC(=O)c1ccc(Cl)cc1)NCc1ccccc1Cl | 5.09% | – | – |
| Cc1cc(C)nc(N/N=C/C2=C(N3CCOCC3)C(=C\c3ccc(Cl)cc3)/CC2)n1 | 1.34% | 0.146 µM [rising, full curve, poor fit] | 0.651 µM [falling, full curve, poor fit] |

Individual results from the list:
Entry of `Cc1ccc(S(=O)(=O)NC(=O)COc2ccc(Cl)cc2Cl)cc1` under cell number change: -13.1%
Entry of `Cc1cc(C)nc(N/N=C/C2=C(N3CCOCC3)C(=C\c3ccc(Cl)cc3)/CC2)n1` under cell number change: 1.34%
Entry of `CC(=O)Nc1cccc2c1C(=O)NC2=O` under cell number change: -20.5%
Entry of `O=c1[nH]c(-c2ccccc2)cs1` under cell number change: 21.1%

Further results

| SMILES | cell number change | AC50 [1] | AC50 [2] |
| --- | --- | --- | --- |
| O=C(NCC(c1cccnc1)N1CCN(c2ccccc2)CC1)c1ccc2c(c1)OCO2 (configuration not stated) | – | 0.461 µM [rising, full curve] | 0.164 µM [rising, full curve] |
| CC(C)(C)NC(=O)CN(Cc1cccs1)C(=O)CCN1CCc2ccccc21 | -33.3% | 16.4 µM [falling, single point] | 29.1 µM [falling, single point] |
| O=C(CN1CCN(c2ccccc2F)CC1)c1c[nH]c2ccccc12 | -24% | 29.1 µM [falling, single point] | – |
| CCc1ccc(NC(=S)Nc2ccc(S(=O)(=O)Nc3ncccn3)cc2)cc1 | -19.6% | 4.11 µM [falling, full curve] | – |
| Cc1ccc(C(=O)C(C)OC(=O)Cc2n[nH]c(=O)c3ccccc23)cc1C (configuration not stated) | 40.1% | 2.59 µM [rising, partial curve, poor fit] | 14.6 µM [rising, partial curve, poor fit] |
| Nc1nc(N)n(-c2ccccc2)c(=Nc2ccccc2)n1 | 12.5% | – | – |
| CC(C)CNC(=O)C(=O)NCCC1CCCCN1S(=O)(=O)c1cccs1 (configuration not stated) | 165% | 2.91 µM [falling, single point] | 23.1 µM [rising, partial curve] |
| COc1ccc(CNC(=S)N/N=C/c2ccc(O)c(OC)c2)cc1 | – | 25.9 µM [rising, single point] | – |
| CCOC(=O)C1=C(C)N(CCCCCC(=O)O)C(=O)NC1c1ccc(Cl)cc1 (configuration not stated) | 25.1% | – | – |
| COc1ccc(NC(=O)c2c(N)no[n+]2[O-])cc1 | 90.3% | – | – |
| CCn1ncc(Br)c1C(=O)Nc1cc(C(=O)OC)ccc1C(=O)OC | -13.1% | 2.91 µM [rising, full curve, poor fit] | – |
| COCCN(C(=S)Nc1cc(C)ccc1C)C(C)c1cccnc1 (configuration not stated) | 11.3% | 29.1 µM [rising, single point] | – |
| O=C(N/N=C/c1ccc(OC(F)F)cc1)C1=COCCO1 | -17.1% | – | – |
| CCOC(=O)c1sc2nc(CC(C)C)c3c(c2c1N)CCC3 | 183% | – | 29.1 µM [rising, single point] |
| Cc1nc(-c2ccccc2)ccc1C(=O)O | -14.4% | 20.6 µM [falling, single point] | – |
| CN(C(=O)COC(=O)c1cccc(S(=O)(=O)N(C)c2ccccc2)c1)C1CCCCC1 | -16.5% | – | – |
| Cc1ccc(C)c(/C=C2\N=C(c3ccccc3F)OC2=O)c1 | -22.8% | 23.1 µM [falling, single point] | – |
| CC(=O)Cn1c(=O)oc2ccccc21 | -15.2% | 0.0184 µM [falling, full curve] | – |
| CCC(C(=O)NCCc1c[nH]c2cc(OC)ccc12)c1ccccc1 (configuration not stated) | 75.4% | – | 16.4 µM [rising, partial curve] |
| Cc1cc(NS(=O)(=O)c2ccc(NC(=O)C(C)Oc3ccccc3Cl)cc2)no1 (configuration not stated) | 14% | – | – |
| CCOC(=O)C1CCCN(C(=O)CCCn2nc(C)n3c(cc4sccc43)c2=O)C1 (configuration not stated) | 1.45% | – | – |

| SMILES | cell number change | AC50 [1] | AC50 [2] |
| --- | --- | --- | --- |
| Cc1ccc(-c2nc3cc(N)ccc3o2)cc1 | 114% | 1.84 µM [rising, full curve] | 2.59 µM [rising, full curve] |
| O=C(c1ccco1)N1CCN(c2nc(C3CC3)nc3c2nnn3Cc2ccccc2Cl)CC1 | -21% | 29.1 µM [falling, single point] | – |
| COC(=O)c1cc2c(ccn2-c2ccc(F)cc2)n1CC(=O)OC(C)C | -20.1% | 10.3 µM [falling, partial curve] | – |
| Cc1nc2cc(-c3sccc3-n3cccc3)nn2c(C)c1C | – | 8.2 µM [rising, partial curve] | – |
| O=C(CCCN1C(=O)c2cccnc2Oc2ccc(Cl)cc21)N1CCCCC1 | -13.1% | 0.58 µM [falling, single point] | 0.00461 µM [falling, full curve, poor fit] |
| Cc1ccc(CN2CCN(CC(=O)NC(C)c3ccc4c(c3)OCCO4)C2=O)cc1 (configuration not stated) | -15% | 20.6 µM [falling, single point] | – |
| O=C(c1cc(COc2ccc(F)cc2Cl)on1)N1CCCCCCC1 | – | 0.58 µM [rising, single point] | – |
| COc1ccc(S(=O)(=O)NCCc2nnc3ccc(SCc4cccnc4)nn23)cc1 | 13.4% | 3.26 µM [rising, single point] | – |
| CCCOC(=O)c1c(N)sc2c1CCC2 | -16.5% | 29.1 µM [rising, single point] | – |
| Cc1ccc(NC2CCCN(C(=O)CCc3ccncc3)C2)cc1C (configuration not stated) | 12.4% | – | – |
| COc1cccc(-c2noc(-c3ccc(Cl)nc3)n2)c1 | 24.3% | 2.59 µM [rising, partial curve] | 4.11 µM [rising, single point] |
| O=C(NCc1cccc(C(F)(F)F)c1)c1cccc(Cl)c1Cl | 48.4% | 1.64 µM [falling, partial curve, poor fit] | 29.1 µM [rising, single point] |
| CCCCCN(C(=O)NC(=O)Nc1ccc(C)cc1)S(=O)(=O)c1ccccc1 | -44.1% | – | 7.31 µM [falling, partial curve] |
| O=C1CS/C(=N\N=C\c2ccco2)N1c1ccccc1 | 2.46% | – | – |
| O=C(Nc1ccccc1C(=O)N1CCCC1)c1cccc(S(=O)(=O)N2CCCCC2)c1 | 34.3% | – | 9.2 µM [rising, single point] |
| Cc1nn(C)c(C)c1C1C(C#N)=C(N)Oc2n[nH]c(C)c21 (configuration not stated) | -0.487% | 5.8 µM [rising, partial curve] | – |
| O=C(NCc1cc(C(F)(F)F)cc(C(F)(F)F)c1)C1CC(c2c(Cl)cccc2Cl)=NO1 (configuration not stated) | -22.7% | 29.1 µM [falling, single point] | – |
| COc1ccc(N2CCN(CCNC(=O)c3ccc4c(c3)[nH]c(=S)n3c5ccccc5nc43)CC2)cc1 | -7.51% | – | – |
| CCc1noc(C)c1C(=O)OCC(=O)Nc1cccc(C)c1 | 6.14% | 29.1 µM [rising, partial curve, poor fit] | – |
| CCN(CC)C(=O)c1cccc(-c2ccc(OC)cc2)c1 | – | 6.51 µM [rising, single point] | 5.8 µM [rising, single point] |
| C#CCN(C#N)c1nc(NCC)nc(NC(C)C)n1 | – | – | 0.58 µM [rising, full curve] |

2 entries picked at random from those above, as already listed:

| SMILES | cell number change | AC50 [1] | AC50 [2] |
| --- | --- | --- | --- |
| O=C1CS/C(=N\N=C\c2ccco2)N1c1ccccc1 | 2.46% | – | – |
| CCc1noc(C)c1C(=O)OCC(=O)Nc1cccc(C)c1 | 6.14% | 29.1 µM [rising, partial curve, poor fit] | – |
